Earlier results, collected in patent US20130281399A1, “TREATMENT OF DISEASES BY EPIGENETIC REGULATION” (RVX Therapeutics Inc., priority 2012, published 2013).

Conditions: Nicodeme et al. (2010); cited from earlier work

For `CCNC(=O)C[C@@H]1N=C(c2ccc(Cl)cc2)c2cc(OC)ccc2-n2c(C)nnc21` [I-BET], the “protection against lipopolysaccharide-induced endotoxic shock and bacteria-induced sepsis” value is listed as “confer protection”.
